Reference: patent US20200171063A1, “Use Of Cholesterol For Promoting Survival And Proliferation Of Primary Medulloblastoma Cells” (Institute For Cancer Research d/b/a The Research Institute …, priority 2017, published 2020)
At least one compound was matched to its structure with a doubt left.

Experiments:
[1] = system: MB cells isolated from Ptch1+/− mice; assay: Ki67 immunocytochemistry of cultured primary MB cells; format: cell-based, mouse; details: 48 hours in culture, NB-B27 medium lacking cholesterol; vs DMSO control
Method: MB cells isolated from Ptch1^+/− mice were cultured with NB-B27 culture medium (lacking cholesterol) in the presence of simvastatin or triparanol at designated concentrations.
Cell culture: Primary mouse medulloblastoma cells were isolated from full-blown mouse-derived tumor as described before (Yang et al., 2008, Cancer Cell, 14, 135-145). Obtained cells were cultured on glass coverslips coated with 0.1 mg/ml poly-D-lysine (Millipore, A-003-E). Cells were pulsed with 10 μM of BrdU (Millipore, 19-160) for 2 hours prior to the material collection time point. […]
Histology and immunohistochemistry: Cultured primary MB cells were fixed with 4% PFA on PBS for 15 minutes, permeabilized, and blocked in 10% normal goat serum on PBST (PBS, 0.1% Triton-X100) for 1 hour at room temperature and stained against Ki67 (Abcam, ab15580, 1:1000), NeuN (Abcam, ab104224, 1:200), Caspase 3 (Cell Signaling, 9662, 1:500), BrdU (Sigma-Aldrich, B-8434, 1:500), mCherry (Abcam, ab167453, 1:500), Zic1 (Generous gift from Dr. Sigal, Dana Farber Research Institute, 1:200), S1000 (Sigma-Aldrich, 1:500), YFP (Life Technologies, 1:500).
Prior to BrdU immunostaining, cells were incubated in pH 5.0 buffer for 30 minutes at 37 C. Secondary antibodies were applied at dilution 1:500 on 10% normal goat serum on PBST for 2 hours at room temperature. Samples were counterstained with DAPI and mounted with Fluoromount-G. […]

MB cells = assay: MTT viability assay of MB cells; format: cell-based, mouse; details: after treatment with simvastatin or triparanol
[2] = system: Hh signaling (Gli1 expression) in MB cells isolated from Ptch1+/− mice; assay: Western blot of Gli1 protein expression in Ptc+/− MB cells; format: cell-based, mouse; details: increasing simvastatin concentration, 48 hours in vitro
Source text: Western blotting: Cells and tissues were lysed in RIPA buffer (Thermo) supplemented with protease (Roche) and phosphatase (Thermo) inhibitors cocktail. Total protein lysates were separated in 8% SDS-PAGE and transferred on PVDF membrane. Membranes were probed with antibodies against Gli1 (Cell Signaling, 1:1000) and GAPDH (Sigma-Aldrich, 1:1000). Western Blot signals were detected with SuperSignal West Pico Substrate and exposed on films. […] Having observed that MB cell proliferation was compromised after cholesterol deficiency, it was postulated that cholesterol may promote Hh pathway activation. Western blotting: Cells and tissues were lysed in RIPA buffer (Thermo) supplemented with protease (Roche) and phosphatase (Thermo) inhibitors cocktail. Total protein lysates were separated in 8% SDS-PAGE and transferred on PVDF membrane. Membranes were probed with antibodies against GLI1 (Cell Signaling, 1:1000), NSDHL (Proteintech, 1:1000), Ptch1 (Novus Biologicals, 1:1000), GAPDH (Sigma-Aldrich, 1:1000). Western Blot signals were detected with SuperSignal West Pico Substrate and exposed on films. MB cells isolated from Ptch1^+/− mice were treated with Simvastatin with and without addition of WSC. At 48 hours after the treatment, cells were harvested to measure Hh signaling through examining Gli1 expression by Western blotting. […]

[3] = system: Hh signaling (Gli1 protein expression) in NIH3T3 cells; assay: Western blot of Gli1 protein in NIH3T3 cells upon Hh treatment; format: cell-based; details: 48 hours
Source text: (§1) Having observed that MB cell proliferation was compromised after cholesterol deficiency, it was postulated that cholesterol may promote Hh pathway activation. Western blotting: Cells and tissues were lysed in RIPA buffer (Thermo) supplemented with protease (Roche) and phosphatase (Thermo) inhibitors cocktail. Total protein lysates were separated in 8% SDS-PAGE and transferred on PVDF membrane. Membranes were probed with antibodies against GLI1 (Cell Signaling, 1:1000), NSDHL (Proteintech, 1:1000), Ptch1 (Novus Biologicals, 1:1000), GAPDH (Sigma-Aldrich, 1:1000). Western Blot signals were detected with SuperSignal West Pico Substrate and exposed on films.
MB cells isolated from Ptch1^+/− mice were treated with Simvastatin with and without addition of WSC. At 48 hours after the treatment, cells were harvested to measure Hh signaling through examining Gli1 expression by Western blotting. To further examine the requirement of cholesterol in Hh signal transduction, NIH3T3 cells that have all components involved in Hh signaling were utilized.
FIG. 4 (panels C and D) show Western blot analysis of GLI1 protein expression in Ptcfl/fl (see, FIG. 4, panel C) and SmoM2 MEFs (see, FIG. 4, panel D) following CreYFP carrying lentivirus infection and subsequent simvastatin, triparanol and water soluble cholesterol treatment for 48 hours in vitro. […] GAPDH was used as a loading control. […]

[4] = system: Hh signaling (Gli1 expression) in Ptch1-deficient MEFs; assay: Western blot of Gli1 protein in Ptch1-deficient MEFs (Ptch1fl/fl + Cre lentivirus); format: cell-based, mouse; details: 48 hours
Source text: as §1
(§2) Primary mouse embryonic fibroblasts (MEFs) from Ptch1fl/fl mice carrying a proportion of Ptch1 gene flanked by loxp sites (Ellis et al., Genesis, 2003, 36, 158-161), or SmoM2 mice expressing a constitutively activated form of Smo upon Cre recombination (Jeong et al., Genes & Develop., 2004, 18, 937-951) were generated. MEFs were then infected with a lentivirus carrying Cre recombinase to activate Hh signaling, or with an empty vector as a control. At 48 hours after the infection, MEFs were harvested to examine Gli1 protein expression by Western blotting. […]

[5] = system: Hh signaling (Gli1 protein expression) in Smo-activated MEFs; assay: Western blot of Gli1 protein in Smo-activated (SmoM2) MEFs; format: cell-based, mouse; details: 48 hours
Source text: as §1, §2

[6] = system: Hh signaling (Ptch1 protein expression) in Gli1-overexpressed NIH3T3 cells; assay: Western blot of Ptch1 protein in Gli1-overexpressed NIH3T3 cells; format: cell-based; details: 48 hours
Source text: as §1
FIG. 4 (panels C and D) show Western blot analysis of GLI1 protein expression in Ptcfl/fl (see, FIG. 4, panel C) and SmoM2 MEFs (see, FIG. 4, panel D) following CreYFP carrying lentivirus infection and subsequent simvastatin, triparanol and water soluble cholesterol treatment for 48 hours in vitro. […] GAPDH was used as a loading control. […] In the absence of Hh ligand, its receptor Ptch1, tethers pathway effector Smo. Bound to Ptch1, Hh releases Smo, causes activation of Gli1 transcription factor, and leads to transcription of Hh pathway genes (Gli1, Ptch1, etc.). Cholesterol promotes Smo activation during Hh signal transduction. […]

[7] = system: Ptc+/− MB subcutaneous allograft; assay: Ptc+/− MB subcutaneous allograft in CB17/SCID mice; format: in vivo, mouse
[8] = system: MB cells developed from constitutively activated Smo (Math1-Cre/SmoM2); assay: Subcutaneous tumors of MB cells from constitutively activated Smo (Math1-Cre/SmoM2 mice); format: in vivo, mouse; details: simvastatin IP

CCC(C)(C)C(=O)O[C@H]1C[C@@H](C)C=C2C=C[C@H](C)[C@H](CC[C@@H]3C[C@@H](O)CC(=O)O3)[C@H]21 [simvastatin]
percentage of proliferating MB cells (Ki67+) [1]: significantly declined
proliferation of MB cells by MTT viability assay (MB cells): Repressed proliferation
expression levels of Gli1 protein [2]: declined
Gli1 protein expression [3]: significantly repressed
Gli1 expression [4]: dramatically inhibited
up-regulation of Gli1 protein expression [5]: not altered
upregulation of Ptch1 protein expression [6]: not altered
Cleaved Caspase-3 positive cells in tumor tissue (apoptosis) ([7]; 40 mg/kg/day simvastatin): Increased number
differentiation (NeuN+) among MB cells in tumor tissue ([7]; 40 mg/kg/day simvastatin): promoted differentiation
tumor cell proliferation (Ki67+) in tumor tissue ([7]; 40 mg/kg/day simvastatin): repressed tumor cell proliferation
cholesterol levels in tumor tissue (mass-spectrometry) ([7]; 40 mg/kg/day simvastatin, 3 weeks): Reduced cholesterol levels
Gli1 protein expression in tumor tissue ([7]; after simvastatin treatment): significantly down-regulated
tumor growth ([7]; simvastatin 20 mg/kg/day, IP, 3 weeks): no obvious effects on tumor growth
MB progression in vivo ([7]; simvastatin 40 mg/kg/day, IP, 3 weeks): significantly inhibited MB progression
MB growth [8]: No obvious inhibition
